According to US20140377282A1 (APEXIGEN, published 2014):
Results are given in words; binding and its absence hold for the method and conditions named. Some binding calls cover weakened binding; strength is not graded here.

Sequences of proteins named here, by UniProt entry; tags and fusion partners are left off. Residues count along the entry.
UniProt P23510, residues 51-183: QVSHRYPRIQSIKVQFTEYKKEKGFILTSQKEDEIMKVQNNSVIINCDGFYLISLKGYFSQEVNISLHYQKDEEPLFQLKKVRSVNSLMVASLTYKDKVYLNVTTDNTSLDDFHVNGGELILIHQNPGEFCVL
UniProt P35968, residues 20-764: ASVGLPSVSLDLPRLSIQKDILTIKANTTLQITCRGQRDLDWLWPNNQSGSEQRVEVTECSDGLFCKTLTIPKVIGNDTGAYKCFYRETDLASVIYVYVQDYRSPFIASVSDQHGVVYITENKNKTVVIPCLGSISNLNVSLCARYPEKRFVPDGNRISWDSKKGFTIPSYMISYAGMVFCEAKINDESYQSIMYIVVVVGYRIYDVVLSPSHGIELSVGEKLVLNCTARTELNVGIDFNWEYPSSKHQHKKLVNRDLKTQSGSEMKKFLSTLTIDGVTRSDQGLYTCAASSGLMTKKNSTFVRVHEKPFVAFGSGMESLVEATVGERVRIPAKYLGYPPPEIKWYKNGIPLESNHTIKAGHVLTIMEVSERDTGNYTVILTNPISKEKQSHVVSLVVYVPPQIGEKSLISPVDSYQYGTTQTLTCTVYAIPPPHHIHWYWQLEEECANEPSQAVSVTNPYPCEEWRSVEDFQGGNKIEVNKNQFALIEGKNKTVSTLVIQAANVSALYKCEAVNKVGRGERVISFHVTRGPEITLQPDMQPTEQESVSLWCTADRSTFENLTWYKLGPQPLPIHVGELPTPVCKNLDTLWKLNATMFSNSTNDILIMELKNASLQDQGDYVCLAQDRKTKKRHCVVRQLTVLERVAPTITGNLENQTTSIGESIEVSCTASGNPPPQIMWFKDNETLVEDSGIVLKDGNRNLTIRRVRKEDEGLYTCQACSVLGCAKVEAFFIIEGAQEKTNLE

Columns and labels:
Human OX40L (human) = Human OX40L (human) (UniProt P23510); experiment: direct ELISA: 1 µg/ml protein coated, 1 µg/ml APX004, goat anti-human HRP-conjugated IgG
recombinant human KDR = biological target: T1, recombinant human KDR (human, UniProt P35968 20-764, limits assumed); experiment: blocking ELISA of KDR binding to VEGF (screen, OD450 (Blocking) against antibody in nM); blocked ligand VEGF
T1 construct: also called VEGFR2

Binder	binding (Human OX40L (human))	binding (recombinant human KDR)
rabbit anti-KDR antibody clone 24 (antibody, V domains shown, rabbit monoclonal antibody, recombinantly expressed and purified for characterization) VH: QSVEESGGRLVTPGTPLTLTCTVSGFSLSSNAMSWVRQAPGEGLEWIGTISSSGSTYYATWVKGRFTISKTSTTVDLKMTSLTAADTATYFCARGDDDVSDYFYYFPIWGPGTLVTVSS VL: AVVLTQTASPVSGAVGGTVTIKCQASQNIYNNLAWYRQKPGQPPKLLIYAASKLASGVPSRFSGSRSGTQFTLSISDLECADAATYYCQSYYFDSSSTDAAFGGGTEVVVK	–	binds
rabbit anti-KDR antibody clone 23 (antibody, V domains shown, rabbit monoclonal antibody, recombinantly expressed and purified for characterization) VH: QSVEESGGRLVTPGTPLTLTCTVSGFSLSSNAMSWVRQAPGEGLEWIGTISSSGSTYYATWVKGRFTISKTSTTVDLKMTSLTAADTATYFCARGDDDVSDYFYYFPIWGPGTLVTVSS VL: AVVLTQTASPVSGAVGGTVTIKCQASQNIYNNLAWYRQKPGQPPKLLIYAASKLASGVPSRFSGSRSGTQFTLSISDLECADAATYYCQSYYFDSSSTDAAFGGGTEVVVK	–	binds

Continued, values first:

binding (Human OX40L (human))	binding (recombinant human KDR)	Binder
no binding (tested: 1 µg/ml)	–	APX004 (humanized clone 36 anti-KDR antibody) (antibody, human IgG1, kappa, V domains shown, also called humanized 36) VH: EVQLVESGGGLVQPGGSLRLSCAASGFDLSSYAMSWVRQAPGKGLEWVGIIGSGGSTYYASWAKGRFTISKDSSKNTVYLQMNSLRAEDTAVYFCARVLWAGSVAYAYHNIWGPGTLVTVSS VL: DIQMTQSPSSLSASVGDRVTINCQASEELGSNLAWYQQKPGKPPKLLIYSASTLASGVPSRFSGSGSGTDYTLTISSLQPEDFATYYCQYTYFGSSYLGAFGGGTKVEIKR
–	binds	rabbit anti-KDR antibody clone 92 (antibody, V domains shown, rabbit monoclonal antibody, recombinantly expressed and purified for characterization) VH: QSVEESGGRLVTPGTPLTLTCTVSGFSLSSNAMSWVRQAPGEGLEWIGTISSSGSTYYATWVKGRFTISKTSTTVDLKMTSLTAADTATYFCARGDDDVSDYFYYFPIWGPGTLVTVSS VL: AVVLTQTASPVSGAVGGTVTIKCQASQNIYNNLAWYRQKPGQPPKLLIYAASKLASGVPSRFSGSRSGTQFTLSISDLECADAATYYCQSYYFDSSSTDAAFGGGTEVVVK
